Experimental data: PubChem BioAssay AID1259254 (NCATS, 2017)

- Assay: 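Gene knock-downs that lead to re-replication, shown by excess G2 DNA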 (primary screen)
- Cell system: human HCT116 colorectal cancer cells
- Reagents: single siRNA against human genes
- Timing: 3 days
- Measured: 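Imaged Hoechst DNA stain sorts each cell into a cycle phase by DNA amount; per plate, G2 fraction set to 0% for non-targeting and 100% for GMNN siRNA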
- Direction: G2 robust z-score: higher = more G2 cells, more excess DNA replication
- Rule for the call: 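Active siRNAs have a G2 robust z of 5 or more median absolute deviations over the median, which in these data means about 38% or higher of GMNN control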
This is one part, drawn at random, of about 59,000 reagents. About 1,550 of all reagents (2.6%) were called active. 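G2 share is only a proxy for re-replication; each gene was hit by three separate siRNAs, and active genes were retested.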 Entries without a mark were called inactive. Reagents against one gene are numbered here. Not all columns of the deposit are shown. No sequences are given here. Not stated in the record: the amount of reagent.

TOMM20L #1 | G2 robust z-score: 1
TOMM20L #2 | G2 robust z-score: 0.08
TOMM20L #3 | G2 robust z-score: 0.989
AKAP11 #1 | G2 robust z-score: -0.562
AKAP11 #2 | G2 robust z-score: 0.111
AKAP11 #3 | G2 robust z-score: -0.819
MAN1C1 #1 | G2 robust z-score: -0.663
MAN1C1 #2 | G2 robust z-score: -1.31
MAN1C1 #3 | G2 robust z-score: -0.722

The list goes on, starting with the last 3 of the part before.
MAN1C1 #1 | G2 robust z-score: -0.663
MAN1C1 #2 | G2 robust z-score: -1.31
MAN1C1 #3 | G2 robust z-score: -0.722
SUPT7L #1 | G2 robust z-score: 0.959
SUPT7L #2 | G2 robust z-score: 1.01
SUPT7L #3 | G2 robust z-score: -0.514
EPHA4 #1 | G2 robust z-score: -0.513
EPHA4 #2 | G2 robust z-score: 4.87
EPHA4 #3 | G2 robust z-score: -0.301
WRNIP1 #1 | G2 robust z-score: 2.43
WRNIP1 #2 | G2 robust z-score: -0.325
WRNIP1 #3 | G2 robust z-score: -1.08
MS4A10 #1 | G2 robust z-score: 2.07
MS4A10 #2 | G2 robust z-score: 0.471
MS4A10 #3 | G2 robust z-score: -0.68
HHIPL2 #1 | G2 robust z-score: 0.461
HHIPL2 #2 | G2 robust z-score: 0.433
HHIPL2 #3 | G2 robust z-score: -1.36
